{
  "source": "patent US5776886A",
  "about": "“Intravaginal preparation containing physiologically active peptide” (Teikoku Seiyaku Kabushiki Kaisha, priority 1993, dated 1998)",
  "test_system": "calcium level in the serum",
  "test": "Experiment 4: effects of the concentration of sucrose fatty acid ester on serum calcium reduction",
  "format": "in vivo, Wistar rats",
  "conditions": "citric acid 100 mg per 5.00 g, intravaginal suppository 20 μg, rats",
  "experimental": "An intravaginal suppository was administered into the rat's vagina, and the blood was collected periodically (2, 4 and 6 hours after administration of the test preparation).\nThe serum was separated, and the calcium level in the serum was determined by using a kit for determination of calcium (Calcium C Test Wako; manufactured by Wako Pure Chemical Industries, Ltd.) (n=3).\nHuman calcitonin (2 mg) was precisely measured, and thereto were added citric acid (100 mg) and Ryoto-Sugar Ester S-970 (50 mg, 100 mg or 400 mg), and the mixture was mixed well.\nIn the same manner as in Experiment 1, each intravaginal suppository was administered to the rat's vagina, and the blood was collected periodically (2 and 4 hours after administration of intravaginal suppository), and the calcium level in the serum thereof was determined (n=3).",
  "note": "Further values from the same series stand in other lists.",
  "data": [
    {"substance": "Human calcitonin", "values": [
      {"measurement": "Reduction rate (%) of calcium level in the serum", "setting": "sucrose fatty acid ester (S-970) 1 w/w %, 4 hr", "value": 16.5, "unit": "%"},
      {"measurement": "Reduction rate (%) of calcium level in the serum", "setting": "sucrose fatty acid ester (S-970) 2 w/w %, 2 hr", "value": 8.0, "unit": "%"},
      {"measurement": "Reduction rate (%) of calcium level in the serum", "setting": "sucrose fatty acid ester (S-970) 2 w/w %, 4 hr", "value": 18.2, "unit": "%"},
      {"measurement": "Reduction rate (%) of calcium level in the serum", "setting": "sucrose fatty acid ester (S-970) 8 w/w %, 2 hr", "value": 21.8, "unit": "%"},
      {"measurement": "Reduction rate (%) of calcium level in the serum", "setting": "sucrose fatty acid ester (S-970) 8 w/w %, 4 hr", "value": 17.5, "unit": "%"}
    ]}
  ]
}
